Test results published in US20220025032A1.
Results are given in words; binding and its absence hold for the method and conditions named. Some binding calls cover weakened binding; strength is not graded here.

Sequences of proteins named here, by UniProt entry; tags and fusion partners are left off. A change or cut given only in a name is not applied to a line headed by its entry.
UniProt P35070: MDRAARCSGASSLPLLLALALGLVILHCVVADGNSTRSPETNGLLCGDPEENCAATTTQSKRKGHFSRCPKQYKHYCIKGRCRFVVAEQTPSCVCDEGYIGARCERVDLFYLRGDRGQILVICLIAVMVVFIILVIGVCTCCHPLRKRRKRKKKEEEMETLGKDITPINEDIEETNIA

B1: NVS3 (Fab, V domains shown)
VH: QVQLLESGGGLVQPGGSLRLSCAASGFTFSSYAMSWVRQAPGKGLEWVSGLGHVGYTTYTDSVKGRFTISRDNSKNTLYLQMNSLRAEDTAVYYCARDYLDFGYYFDVWGQGTLVTVSS
VL: SYELTQPLSVSVALGQTARITCSGDKIGKKYVHWYQQKPGQAPVLVIYDDSDRPSGIPERFSGSNSGNTATLTISRAQAGDEADYYCQAWDMQSVVFGGGTKLTVLG
B2: NVS13 (bispecific antibody)
heavy: QVQLLESGGGLVQPGGSLRLSCAASGFTFSSYAMSWVRQAPGKGLEWVSGLGHVGYTTYTDSVKGRFTISRDNSKNTLYLQMNSLRAEDTAVYYCARDYLDFGYYFDVWGQGTLVTVSSASTKGPSVFPLAPSSKSTSGGTAALGCLVKDYFPEPVTVSWNSGALTSGVHTFPAVLQSSGLYSLSSVVTVPSSSLGTQTYICNVNHKPSNTKVDKRVEPKSCGSGGGGSGGGGSGGGEVQLVESGGGLVQPGGSLRLSCTASGFSLTDYYYMTWVRQAPGKGLEWVGFIDPDDDPYYATWAKGRFTISRDNSKNTLYLQMNSLRAEDTAVYYCAGGDHNSGWGLDIWGQGTLVTVSSASTKGPSVFPLAPSSKSTSGGTAALGCLVKDYFPEPVTVSWNSGALTSGVHTFPAVLQSSGLYSLSSVVTVPSSSLGTQTYICNVNHKPSNTKVDKRVEPKSC
light: SYELTQPLSVSVALGQTARITCSGDKIGKKYVHWYQQKPGQAPVLVIYDDSDRPSGIPERFSGSNSGNTATLTISRAQAGDEADYYCQAWDMQSVVFGGGTKLTVLGQPKAAPSVTLFPPSSEELQANKATLVCLISDFYPGAVTVAWKADSSPVKAGVETTTPSKQSNNKYAASSYLSLTPEQWKSHRSYSCQVTHEGSTVEKTVAPTECSGSGGGGSGGGGSGGGEIVMTQSPSTLSASVGDRVIITCQASEIIHSWLAWYQQKPGKAPKLLIYLASTLASGVPSRFSGSGSGAEFTLTISSLQPDDFATYYCQNVYLASTNGANFGQGTKLTVLKRTVAAPSVFIFPPSDEQLKSGTASVVCLLNNFYPREAKVQWKVDNALQSGNSQESVTEQDSKDSTYSLSSTLTLSKADYEKHKVYACEVTHQGLSSPVTKSFNRGEC
B3: NVS4 (Fab, V domains shown)
VH: QVQLLESGGGLVQPGGSLRLSCAASGFTFSRYWISWVRQAPGKGLEWVSYIDSTGTFINYADSVKGRFTISRDNSKNTLYLQMNSLRAEDTAVYYCARGGSLFDYWGQGTLVTVSS
VL: DIQMTQSPSSLSASVGDRVTITCRASQGIISYLGWYQQKPGKAPKLLIYAASSLQSGVPSRFSGSGSGTDFTLTISSLQPEDFATYYCQQYDALNTFGQGTKVEIKR

Key:
[1] = molecular target: membrane-bound human BTC on 293F-hBTC cells (human) (UniProt P35070); assay: flow cytometry on 293F-hBTC cells, anti-human Fab-FITC
[2] = molecular target: membrane-bound human BTC on 293F-hBTC cells (human) (UniProt P35070); assay: flow cytometry on 293F-hBTC cells

| Binder | binding [1] | binding [2] |
| --- | --- | --- |
| B1 | binds | binds |
| B2 | binds | binds |
| B3 | – | binds |
